# Values quoted from earlier work, collected in patent US4546076A, “Enzymatic process for the determination of beta-lactam antibiotics” (U C B Societe Anonyme, priority 1982, dated 1985).
# System: soluble exocellular D-alanyl-D-alanine-carboxypeptidase (enzyme R 39)
# Conditions: about 20 μl milk samples, 3 picomols of soluble enzyme R 39, less than one hour; cited from earlier work
smiles,measurement,value
"CC1(C)S[C@@H]2[C@H](NC(=O)Cc3ccccc3)C(=O)N2[C@H]1C(=O)O [penicillin G, benzylpenicillin]",concentration determined qualitatively by the visual method,more than 0.09 I.U./ml
same,lowest concentration determined quantitatively (spectrophotometer),0.02 I.U./ml
